For 33 molecules, binding results are on record in patent US20180251563A1.

Protein sequences, listed by entry. Tags and fused reporters are not part of them. Residues count along the entry.
UniProt P15391, residues 20-291: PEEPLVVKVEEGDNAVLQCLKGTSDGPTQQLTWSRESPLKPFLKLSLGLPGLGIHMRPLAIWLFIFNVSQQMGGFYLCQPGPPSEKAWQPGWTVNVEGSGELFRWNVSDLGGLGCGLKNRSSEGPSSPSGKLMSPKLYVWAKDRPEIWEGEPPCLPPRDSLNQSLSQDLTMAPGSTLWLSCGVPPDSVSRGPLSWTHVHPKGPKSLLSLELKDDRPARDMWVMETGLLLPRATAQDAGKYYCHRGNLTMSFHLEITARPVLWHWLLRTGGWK
UniProt P20273, residues 20-687: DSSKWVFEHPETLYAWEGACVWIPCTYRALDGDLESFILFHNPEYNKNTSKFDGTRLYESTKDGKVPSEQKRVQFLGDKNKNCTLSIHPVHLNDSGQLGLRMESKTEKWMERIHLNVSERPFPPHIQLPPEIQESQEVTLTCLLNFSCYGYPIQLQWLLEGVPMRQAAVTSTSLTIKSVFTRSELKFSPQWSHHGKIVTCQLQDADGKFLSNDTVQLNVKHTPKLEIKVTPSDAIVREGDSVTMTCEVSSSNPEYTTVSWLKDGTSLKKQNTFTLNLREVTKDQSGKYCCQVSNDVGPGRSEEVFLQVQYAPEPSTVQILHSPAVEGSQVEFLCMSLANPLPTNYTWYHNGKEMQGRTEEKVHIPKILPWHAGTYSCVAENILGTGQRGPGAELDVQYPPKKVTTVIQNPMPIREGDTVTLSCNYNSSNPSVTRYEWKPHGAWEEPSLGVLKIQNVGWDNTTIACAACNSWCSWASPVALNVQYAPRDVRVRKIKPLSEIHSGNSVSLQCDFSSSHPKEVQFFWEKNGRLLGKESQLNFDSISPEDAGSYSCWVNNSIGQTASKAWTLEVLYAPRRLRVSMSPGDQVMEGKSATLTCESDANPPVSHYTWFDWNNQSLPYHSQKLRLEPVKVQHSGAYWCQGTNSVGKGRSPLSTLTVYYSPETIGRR

B1: SEQ ID NO 148 (designed binder)
chain: MGSWYEFYERLDAIDTRLWALGGSEAELAAFEKEIAAFESELQAYKGKGNPEVEFLREYAAEIRHFLQAYRHN
B2: SEQ ID NO 152 (designed binder)
chain: B1 chain with Y5E, E9I, D15M, T16E, F55D, E58Y, Y59A, E62D
B3: SEQ ID NO 162 (designed binder)
chain: B1 chain with Y5Q, Y8E, E9Q, D15N, T16W, F55E, Y59W, E62D, H65I
B4: SEQ ID NO 156 (designed binder)
chain: B1 chain with Y8V, E9Y, D15Y, T16D, F55D, E58Y, Y59A, E62D, H65D
B5: SEQ ID NO 163 (designed binder)
chain: B1 chain with E9S, T16S, W19Y, E58D, H65R, F66Y
B6: SEQ ID NO 140 (designed binder)
chain: MGSWAEFYHRLYAIETRLSALGGSEAELAAFEKEIAAFESELQAYKGKGNPEVEYLRHWAAWIRTYLQAYRHN
B7: SEQ ID NO 142 (designed binder)
chain: B6 chain with A5W, Y8E, H9G, T16E, S19T, H58E, T65Q, Y66M
B8: SEQ ID NO 146 (designed binder)
chain: B6 chain with A5W, Y8E, H9A, T16F, H58S, W62Y, Y66S
B9: SEQ ID NO 143 (designed binder)
chain: B6 chain with A5W, Y8E, T16E, S19V, H58N, W62Y, T65M, Y66A
B10: SEQ ID NO 144 (designed binder)
chain: B6 chain with A5W, Y8E, H9A, T16F, H58S, W62Y, Y66S
B11: SEQ ID NO 145 (designed binder)
chain: B6 chain with A5W, Y8E, H9A, Y12W, T16S, S19K, W62Y, T65V, Y66I
B12: SEQ ID NO 147 (designed binder)
chain: B6 chain with A5E, Y12D, T16L, S19Y, H58W, W59Y, W62E, T65E, Y66I
B13: SEQ ID NO 150 (designed binder)
chain: MGSWIEFDDRLLAIMDRLWALGGSEAELAAFEKEIAAFESELQAYKGKGNPEVEDLRDVAADIRHYLQAYRHN
B14: SEQ ID NO 154 (designed binder)
chain: B13 chain with D8E, D9H, L12S, M15N, W19Y, D58E, V59W, H65S, Y66L
B15: SEQ ID NO 165 (designed binder)
chain: B13 chain with I5W, D9E, L12Y, M15E, W19F, D55W, D58I, H65E, Y66I
B16: SEQ ID NO 155 (designed binder)
chain: B13 chain with I5F, D8E, D9M, L12D, D16A, D58Y, V59A, H65D
B17: SEQ ID NO 164 (designed binder)
chain: B13 chain with I5E, D8H, L12E, M15S, V59W, H65F
B18: SEQ ID NO 153 (designed binder)
chain: MGSWIEFEERLYAIETRLLALGGSEAELAAFEKEIAAFESELQAYKGKGNPEVEFLRVVAADIREWLQAYRHN
B19: SEQ ID NO 158 (designed binder)
chain: B18 chain with I5F, Y12I, T16E, L19F, F55Y, V58W, V59I, E65D, W66V
B20: SEQ ID NO 151 (designed binder)
chain: MGSWYEFWERLDAITFRLYALGGSEAELAAFEKEIAAFESELQAYKGKGNPEVEDLRTWAADIRAILQAYRHN
B21: SEQ ID NO 166 (designed binder)
chain: MGSWEEFEYRLMAIEVRLWALGGSEAELAAFEKEIAAFESELQAYKGKGNPEVEVLREIAADIRQILQAYRHN
B22: SEQ ID NO 138 (designed binder)
chain: MGSWFEFNHRLWAIFERLMALGGSEAELAAFEKEIAAFESELQAYKGKGNPEVEYLRAMAAVIRYHLQAYRHN
B23: SEQ ID NO 141 (designed binder)
chain: MGSWVEFSDRLYAIEERLWALGGSEAELAAFEKEIAAFESELQAYKGKGNPEVEELRELAAIIRHSLQAYRHN
B24: SEQ ID NO 157 (designed binder)
chain: B23 chain with S8E, Y12D, E15L, E55D, I62D, H65D, S66F
B25: SEQ ID NO 149 (designed binder)
chain: MGSWNEFFDRLDAILYRLDALGGSEAELAAFEKEIAAFESELQAYKGKGNPEVEYLRFVAADIRSWLQAYRHN
B26: SEQ ID NO 160 (designed binder)
chain: B21 chain with E5L, M12D, E15L, V16D, W19F, V55D, I59V, Q65M, I66L
B27: SEQ ID NO 161 (designed binder)
chain: B20 chain with W8H, E9D, F16N, T58D, A65V, I66W
B28: SEQ ID NO 159 (designed binder)
chain: B13 chain with D8A, L12D, M15L, W19D, D55W, D58E, V59I, H65A
B29: SEQ ID NO 139 (designed binder)
chain: MGSWEEFDGRLFAIEQRLQALGGSEAELAAFEKEIAAFESELQAYKGKGNPEVEVLRWFAAGIRDFLQAYRHN
B30: SEQ ID NO 137 (designed binder)
chain: MGSWEEFELRLNAIEERLYALGGSEAELAYFEYVIADFEGNLQRYKGKGNPEVEALYFEADAIFEELVAYRHN
B31: SEQ ID NO 168 (designed binder)
chain: MGSWYEFKNDLAWIKVHLEALGGSEAELAYFEFRIAHFENALQYYKGKGNPEVEALRKEAAAIRDELQAYRHN
B32: SEQ ID NO 167 (designed binder)
chain: MGSWVVFKQRLAYIKDLLEALGGSEAELAYFEMSIAFFEEDLQVYKGKGNPEVEALRKEAAAIRDELQAYRHN
B33: SEQ ID NO 169 (designed binder)
chain: MGSWVEFYNRLWAIDHRLHALGGSEAELAAFEKEIAAFESELQAYKGKGNPEVEVLRYHAASIRVTLQAYRHN

Residue numbers refer to the chain shown, from its start. These are yes or no findings as the source states them, for the method shown. Some binding calls cover weakened binding; strength is not graded here.

One test has as its target CD19 (UniProt P15391). In words: library selection; assay not described.
On to B1, for which the binding entry is listed as “binds”.
On the same count and under the same terms, in the case of B2 it was “binds”; in that of B3, “binds”; in that of B4, “binds”.
Still for that read-out and setting: in the case of B5 it was “binds”; in that of B6, “binds”.
Still for that read-out and setting: the result for B7 reads “binds”; that for B8, “binds”.
Take B9: the binding result was “binds”.
Still for that read-out and setting: in the case of B10 it was “binds”.
Same read-out and setting: the result for B11 reads “binds”; that for B12, “binds”; that for B13, “binds”.
For B14, the binding entry was “binds”.
Same read-out and setting: the result for B15 reads “binds”; that for B16, “binds”.
Still for that read-out and setting: the result for B17 reads “binds”; that for B18, “binds”; that for B19, “binds”.
For B20, the binding result was “binds”.
With B21, the binding result is listed as “binds”.
B22: the binding result is on record as “binds”.
Same read-out and setting: the result for B23 reads “binds”; that for B24, “binds”; that for B25, “binds”.
The same measure, in the same setting: in the case of B26 it was “binds”; in that of B27, “binds”; in that of B28, “binds”.
The same measure, in the same setting: in the case of B29 it was “binds”; in that of B30, “binds”.

A further test deals with CD22 (UniProt P20273). In words: library selection; assay not described.
As to B31, the binding entry is reported as “binds”.
Still for that read-out and setting: in the case of B32 it was “binds”; in that of B33, “binds”.
